Source: patent US20190225694A1 (ZAKLADY FARMACEUTYCZNE POLPHARMA, published 2019)
No constants are given. Whether binding was seen depends on the method and setting. Some results given as binding are weak or reduced against the parent protein; the word gives no strength.

Sequences of proteins named here, by UniProt entry; tags and fusion partners are left off. A change or cut given only in a name is not applied to a line headed by its entry.
UniProt P13612: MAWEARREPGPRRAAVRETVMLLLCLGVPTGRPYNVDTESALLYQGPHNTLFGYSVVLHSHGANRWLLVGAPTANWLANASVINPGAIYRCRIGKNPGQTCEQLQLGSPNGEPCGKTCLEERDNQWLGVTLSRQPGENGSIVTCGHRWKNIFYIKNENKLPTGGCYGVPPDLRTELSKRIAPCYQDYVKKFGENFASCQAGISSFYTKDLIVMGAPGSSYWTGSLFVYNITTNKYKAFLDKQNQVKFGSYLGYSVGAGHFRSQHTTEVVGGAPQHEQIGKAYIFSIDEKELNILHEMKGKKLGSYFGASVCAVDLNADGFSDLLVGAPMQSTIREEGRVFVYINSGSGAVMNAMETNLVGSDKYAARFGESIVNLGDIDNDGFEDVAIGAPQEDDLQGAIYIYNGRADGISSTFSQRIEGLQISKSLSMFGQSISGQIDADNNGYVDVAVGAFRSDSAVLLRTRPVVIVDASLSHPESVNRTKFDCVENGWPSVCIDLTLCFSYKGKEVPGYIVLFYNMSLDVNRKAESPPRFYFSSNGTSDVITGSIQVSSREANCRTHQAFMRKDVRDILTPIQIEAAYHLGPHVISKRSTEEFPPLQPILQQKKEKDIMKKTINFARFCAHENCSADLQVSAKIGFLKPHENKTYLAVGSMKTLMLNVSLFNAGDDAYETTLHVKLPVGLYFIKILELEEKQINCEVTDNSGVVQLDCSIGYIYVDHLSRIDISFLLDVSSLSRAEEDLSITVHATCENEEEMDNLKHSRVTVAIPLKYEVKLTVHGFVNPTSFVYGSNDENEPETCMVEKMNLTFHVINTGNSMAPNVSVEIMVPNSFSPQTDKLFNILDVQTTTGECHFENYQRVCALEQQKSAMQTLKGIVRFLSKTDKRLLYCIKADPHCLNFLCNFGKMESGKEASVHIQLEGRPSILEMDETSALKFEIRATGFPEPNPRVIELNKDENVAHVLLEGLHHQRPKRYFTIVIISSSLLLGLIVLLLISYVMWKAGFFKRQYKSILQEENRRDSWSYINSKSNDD

Molecular target: integrin α4β1 (coated, direct ELISA) (UniProt P13612)
Test: direct ELISA, coated integrin α4β1

binding | Binder
binds | natalizumab biosimilar antibody produced by CHO DG44 Clone 1 (antibody, human IgG4, kappa, V domains shown, Tested product from the clone selection step; full-length IgG4) VH: QVQLVQSGAEVKKPGASVKVSCKASGFNIKDTYIHWVRQAPGQRLEWMGRIDPANGYTKYDPKFQGRVTITADTSASTAYMELSSLRSEDTAVYYCAREGYYGNYGVYAMDYWGQGTLVTVSS VL: DIQMTQSPSSLSASVGDRVTITCKTSQDINKYMAWYQQTPGKAPRLLIHYTSALQPGIPSRFSGSGSGRDYTFTISSLQPEDIATYYCLQYDNLWTFGQGTKVEIKR
binds | natalizumab biosimilar antibody produced by CHO DG44 Clone 2 (antibody, human IgG4, kappa, V domains shown, Tested product from the clone selection step; full-length IgG4) VH: QVQLVQSGAEVKKPGASVKVSCKASGFNIKDTYIHWVRQAPGQRLEWMGRIDPANGYTKYDPKFQGRVTITADTSASTAYMELSSLRSEDTAVYYCAREGYYGNYGVYAMDYWGQGTLVTVSS VL: DIQMTQSPSSLSASVGDRVTITCKTSQDINKYMAWYQQTPGKAPRLLIHYTSALQPGIPSRFSGSGSGRDYTFTISSLQPEDIATYYCLQYDNLWTFGQGTKVEIKR
